Two substances from paper PMC11321591 can be followed below.

Chains of the proteins cited; added tags and fusions are not shown.
UniProt Q96SN8: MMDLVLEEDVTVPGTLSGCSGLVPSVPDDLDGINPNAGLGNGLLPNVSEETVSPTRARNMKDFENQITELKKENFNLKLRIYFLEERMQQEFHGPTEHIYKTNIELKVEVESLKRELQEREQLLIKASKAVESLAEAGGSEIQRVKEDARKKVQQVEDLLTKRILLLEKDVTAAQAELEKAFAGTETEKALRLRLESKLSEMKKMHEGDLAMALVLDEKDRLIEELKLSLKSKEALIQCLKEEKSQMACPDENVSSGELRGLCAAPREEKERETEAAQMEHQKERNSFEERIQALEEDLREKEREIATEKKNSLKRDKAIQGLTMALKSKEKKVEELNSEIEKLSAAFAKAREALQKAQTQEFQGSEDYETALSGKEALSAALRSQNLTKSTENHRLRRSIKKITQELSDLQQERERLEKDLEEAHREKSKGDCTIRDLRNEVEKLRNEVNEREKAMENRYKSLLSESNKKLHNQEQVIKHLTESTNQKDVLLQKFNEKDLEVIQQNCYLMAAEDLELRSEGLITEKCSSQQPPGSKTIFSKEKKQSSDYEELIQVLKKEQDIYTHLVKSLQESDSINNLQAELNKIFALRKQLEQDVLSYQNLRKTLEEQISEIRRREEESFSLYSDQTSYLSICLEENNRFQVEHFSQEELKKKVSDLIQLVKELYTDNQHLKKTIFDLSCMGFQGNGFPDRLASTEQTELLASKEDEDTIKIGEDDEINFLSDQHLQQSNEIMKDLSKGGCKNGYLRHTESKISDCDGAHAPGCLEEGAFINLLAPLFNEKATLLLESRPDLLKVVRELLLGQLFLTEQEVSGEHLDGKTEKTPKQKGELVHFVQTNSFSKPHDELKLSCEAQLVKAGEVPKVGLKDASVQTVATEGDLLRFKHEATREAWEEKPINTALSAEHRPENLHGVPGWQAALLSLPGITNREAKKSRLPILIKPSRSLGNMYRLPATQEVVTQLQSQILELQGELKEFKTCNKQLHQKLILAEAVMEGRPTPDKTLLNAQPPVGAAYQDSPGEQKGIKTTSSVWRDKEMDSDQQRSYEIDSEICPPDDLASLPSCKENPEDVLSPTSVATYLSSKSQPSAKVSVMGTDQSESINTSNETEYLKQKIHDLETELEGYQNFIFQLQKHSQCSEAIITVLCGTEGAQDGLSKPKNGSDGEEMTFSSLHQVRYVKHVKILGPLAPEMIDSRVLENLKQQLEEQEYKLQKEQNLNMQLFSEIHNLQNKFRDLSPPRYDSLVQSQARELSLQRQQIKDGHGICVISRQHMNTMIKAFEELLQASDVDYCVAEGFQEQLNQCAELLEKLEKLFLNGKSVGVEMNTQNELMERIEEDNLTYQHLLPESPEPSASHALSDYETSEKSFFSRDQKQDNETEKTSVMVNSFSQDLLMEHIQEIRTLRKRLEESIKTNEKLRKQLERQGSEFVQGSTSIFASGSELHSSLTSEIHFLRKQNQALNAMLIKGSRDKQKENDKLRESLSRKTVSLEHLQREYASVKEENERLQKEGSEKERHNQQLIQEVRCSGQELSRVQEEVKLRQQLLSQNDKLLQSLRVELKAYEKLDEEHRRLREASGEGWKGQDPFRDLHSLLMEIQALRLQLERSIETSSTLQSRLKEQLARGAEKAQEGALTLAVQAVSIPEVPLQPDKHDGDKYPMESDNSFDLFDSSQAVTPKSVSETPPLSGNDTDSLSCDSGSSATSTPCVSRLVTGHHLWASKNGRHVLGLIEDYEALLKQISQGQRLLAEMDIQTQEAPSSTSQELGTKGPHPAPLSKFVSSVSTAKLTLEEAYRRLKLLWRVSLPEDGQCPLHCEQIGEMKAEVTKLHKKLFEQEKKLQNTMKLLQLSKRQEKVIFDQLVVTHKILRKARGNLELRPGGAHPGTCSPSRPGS
UniProt P36404: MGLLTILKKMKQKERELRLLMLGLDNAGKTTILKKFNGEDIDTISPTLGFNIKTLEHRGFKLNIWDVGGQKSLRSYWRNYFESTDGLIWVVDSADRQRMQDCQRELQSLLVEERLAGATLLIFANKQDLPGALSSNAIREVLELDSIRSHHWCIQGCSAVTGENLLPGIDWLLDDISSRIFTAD

No constants are given. Whether binding was seen depends on the method and setting. Binding seen in cells or lysates may run through a third protein. Some binding calls cover weakened binding; strength is not graded here.

For experiment [1], the target named is Myc-Cdk5rap2 (CDK5 Regulatory Subunit Associated Protein 2), in HEK293 (not stated (human or mouse cDNA cloned)) (UniProt Q96SN8). The experiment in a line: co-IP; HA-Arl2 and Myc-Cdk5rap2 overexpressed in HEK293 cells; Pierce IP lysis buffer with protease inhibitors; lysate with HA or Myc antibody overnight at 4°C, protein A/G beads 3 h at 4°C, washed with PBS; western blot. (A western blot detects proteins with antibodies after separation by electrophoresis.)

In experiment [2] the target is HA-Arl2 (ADP ribosylation factor-like GTPase 2) (human) (UniProt P36404). Described as above.

For the substance “HA-Arl2 (ADP ribosylation factor-like GTPase 2) (from UniProt P36404 1-184)”, the binding entry in experiment [1] is recorded as “binds”. Take “Myc-Cdk5rap2 (CDK5 Regulatory Subunit Associated Protein 2), in HEK293 (from UniProt Q96SN8 1-1893)”: the binding entry in experiment [2] was “binds”.
